In the experiment the target is PKCδ-Flag (UniProt Q05655). The experiment can be described thus: co-IP.

Amino acid sequences for entries named in this document (tags omitted). A change or cut given only in a name is not applied to a line headed by its entry.
UniProt Q05655: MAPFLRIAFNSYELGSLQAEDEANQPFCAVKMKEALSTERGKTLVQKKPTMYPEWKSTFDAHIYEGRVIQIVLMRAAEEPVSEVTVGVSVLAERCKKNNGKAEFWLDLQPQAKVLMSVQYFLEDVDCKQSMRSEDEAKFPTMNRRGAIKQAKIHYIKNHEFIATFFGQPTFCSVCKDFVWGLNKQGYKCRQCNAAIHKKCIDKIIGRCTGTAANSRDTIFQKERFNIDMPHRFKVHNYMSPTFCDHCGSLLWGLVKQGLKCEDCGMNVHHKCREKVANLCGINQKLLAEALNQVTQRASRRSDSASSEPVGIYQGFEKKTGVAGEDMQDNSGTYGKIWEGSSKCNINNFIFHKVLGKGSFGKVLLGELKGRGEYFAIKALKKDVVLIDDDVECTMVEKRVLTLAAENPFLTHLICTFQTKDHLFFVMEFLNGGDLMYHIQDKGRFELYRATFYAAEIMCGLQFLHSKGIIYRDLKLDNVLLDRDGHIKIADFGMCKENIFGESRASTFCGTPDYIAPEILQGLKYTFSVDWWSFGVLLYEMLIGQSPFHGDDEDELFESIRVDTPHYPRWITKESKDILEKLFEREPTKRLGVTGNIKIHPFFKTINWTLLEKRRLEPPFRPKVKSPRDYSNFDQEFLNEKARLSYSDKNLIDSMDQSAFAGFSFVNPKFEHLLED
UniProt P09429: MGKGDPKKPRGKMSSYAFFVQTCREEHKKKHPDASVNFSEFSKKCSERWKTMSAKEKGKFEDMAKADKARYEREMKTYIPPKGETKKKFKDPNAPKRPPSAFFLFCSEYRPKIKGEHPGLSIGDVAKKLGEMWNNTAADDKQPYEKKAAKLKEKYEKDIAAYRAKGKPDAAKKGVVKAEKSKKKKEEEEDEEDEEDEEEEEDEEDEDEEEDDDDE

These are yes or no findings as the source states them, for the method shown. In cells and extracts the contact can be indirect.

Turning to “HMGB1-HA wild type (from UniProt P09429 1-215)”, the binding entry is “no binding”.

Source of the values: article PMC9144045.
